Assay [1] addresses T1, HisGB1-CHRONO minimal repressive domain (MRD) (human) (UniProt Q8N365).
T1 sequence: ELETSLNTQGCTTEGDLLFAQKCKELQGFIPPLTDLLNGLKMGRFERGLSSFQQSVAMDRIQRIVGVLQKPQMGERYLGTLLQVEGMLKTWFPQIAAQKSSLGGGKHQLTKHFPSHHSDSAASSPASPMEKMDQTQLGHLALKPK
As to the kind of experiment: pull-down.

The target in assay [2] is BMAL1 transactivation domain (TAD), residues 579-626 (mouse). As to the kind of experiment: NMR titration.

These are yes or no findings as the source states them, for the method shown. Binding can be weak; no strength is given. Sequences can lack the tags named with a protein.

Among the data in doi:10.1101/2022.10.04.510902 (bioRxiv, 2022) are binding values, retold here.

On to “BMAL1 transactivation domain (TAD), residues 579-626 (mouse) (domain or fragment)”, for which the binding result in assay [1] was “binds”.

B1: His-CHRONO minimal repressive domain (MRD) (domain or fragment, UniProt Q8N365 101-245)
chain: ELETSLNTQGCTTEGDLLFAQKCKELQGFIPPLTDLLNGLKMGRFERGLSSFQQSVAMDRIQRIVGVLQKPQMGERYLGTLLQVEGMLKTWFPQIAAQKSSLGGGKHQLTKHFPSHHSDSAASSPASPMEKMDQTQLGHLALKPK
Regarding B1, the binding entry in assay [2] is listed as “binds”.
